The assay relates to BDF1 mice, M5076 sarcoma s.c., survival/tumor T/C. Nature of the assay: NCI In Vivo Anticancer Drug Screen. Data for tumor model Sarcoma M5076 (subcutaneous) in B6D2F1 (BDF1) mice. The method, then: The antitumor activity of compounds was measured in mice bearing transplantable tumors. Survival or tumor size were measured and the results are expressed as the measurement made in the treated group (T) divided by the measurement made in the vehicle treated control group (C). The tumor model used in this assay is Sarcoma M5076 (subcutaneous) in B6D2F1 (BDF1) mice

Where [1] appears, read: T/C endpoint: median survival time, dose: 1000.0 mg/kg/injection, schedule: Q01DX001 (ip), vehicle: saline, evaluated on day 16, higher T/C = longer survival.
Setting [2] is: T/C endpoint: median survival time, dose: 1000.0 mg/kg/injection, schedule: Q01DX001 (ip), vehicle: saline, evaluated on day 43, higher T/C = longer survival.
Where [3] appears, read: T/C endpoint: median survival time, dose: 1000.0 mg/kg/injection, schedule: Q01DX001 (ip), vehicle: saline, evaluated on day 50, higher T/C = longer survival.

The structures appear in SMILES notation. The list does not hold the whole screen: it gathers tests that were run many times, whatever their T/C, doses with no T/C, and many T/C values between a quarter and a half above the control. Other doses and runs of a compound stand elsewhere. T/C is the treated group as % of the vehicle group. Schedule codes are those of the source, read here as Q, the interval in days (D) or hours (H), X, the number of doses. Some entries give survivors of the animals treated and no T/C: the source files T/C as zero there, which appears to mark a toxic dose or a test without result, not a measured value. Counts of survivors are from the toxicity check (mostly the fifth day) where no day follows; animals may have died later. Where survival is the endpoint, the PubChem record calls one and a half times the control and up active, and a quarter to a half above the control has no call in these data; cut-offs in other NCI protocols can differ. Some doses were run more than once; their values stand side by side, smallest first. Some T/C values are followed by the survivors on the day toxicity was checked, most often the fifth; where none is given, no animal had died by that day.

For the molecule `CC1(C)N=C(N)N=C(N)N1c1ccc(CCCCc2ccc(S(=O)(=O)F)cc2Cl)c(Cl)c1`, the T/C (T/C endpoint: median survival time, dose: 3.7 mg/kg/injection, schedule: Q01DX005 (ip), vehicle: other, higher T/C = longer survival) is 134 % of control; the T/C (T/C endpoint: median survival time, dose: 3.7 mg/kg/injection, schedule: Q01DX009 (ip), vehicle: other, higher T/C = longer survival) is 143 % of control; the T/C (T/C endpoint: median survival time, dose: 3.8 mg/kg/injection, schedule: Q01DX009 (ip), vehicle: other, higher T/C = longer survival) is 125 % of control [8 of 9 alive on day 89]; the T/C (T/C endpoint: median survival time, dose: 5.0 mg/kg/injection, schedule: Q01DX009 (ip), vehicle: other, higher T/C = longer survival) was 125 % of control [8 of 9 alive on day 89]; the T/C (T/C endpoint: median survival time, dose: 5.0 mg/kg/injection, schedule: Q01DX009 (ip), vehicle: saline with Tween-80, higher T/C = longer survival) is 133 % of control; the T/C (T/C endpoint: median survival time, dose: 7.5 mg/kg/injection, schedule: Q01DX001 (ip), vehicle: other, higher T/C = longer survival) is 129 % of control. In addition, the T/C is 140 % of control [9 of 10 alive on day 89] (T/C endpoint: median survival time, dose: 7.5 mg/kg/injection, schedule: Q01DX005 (ip), vehicle: other, higher T/C = longer survival); 138 and 141 % of control (T/C endpoint: median survival time, dose: 7.5 mg/kg/injection, schedule: Q01DX009 (ip), vehicle: other, higher T/C = longer survival); 141 % of control [9 of 10 alive on day 89] (T/C endpoint: median survival time, dose: 10.0 mg/kg/injection, schedule: Q01DX009 (ip), vehicle: other, higher T/C = longer survival); 141 % of control (T/C endpoint: median survival time, dose: 12.0 mg/kg/injection, schedule: Q01DX009 (ip), vehicle: other, higher T/C = longer survival); 137 % of control [8 of 10 alive on day 109] (T/C endpoint: median survival time, dose: 18.0 mg/kg/injection, schedule: Q01DX009 (ip), vehicle: other, higher T/C = longer survival); 130 % of control [8 of 10 alive on day 89] (T/C endpoint: median survival time, dose: 120.0 mg/kg/injection, schedule: Q01DX001 (ip), vehicle: other, higher T/C = longer survival). Moreover, the survivor count reads like this: (T/C endpoint: median survival time, dose: 15.0 mg/kg/injection, schedule: Q01DX001 (iv), vehicle: other, higher T/C = longer survival) 2 of 10 on day 89; (T/C endpoint: median survival time, dose: 15.0 mg/kg/injection, schedule: Q01DX005 (iv), vehicle: other, higher T/C = longer survival) 0 of 12 on day 89; (T/C endpoint: median survival time, dose: 24.0 mg/kg/injection, schedule: Q01DX009 (ip), vehicle: other, higher T/C = longer survival) 0 of 5; (T/C endpoint: median survival time, dose: 27.0 mg/kg/injection, schedule: Q01DX009 (ip), vehicle: other, higher T/C = longer survival) 2 of 10 on day 109; (T/C endpoint: median survival time, dose: 30.0 mg/kg/injection, schedule: Q01DX001 (iv), vehicle: other, higher T/C = longer survival) 0 of 10 on day 89; (T/C endpoint: median survival time, dose: 30.0 mg/kg/injection, schedule: Q01DX005 (ip), vehicle: other, higher T/C = longer survival) 0 of 10 on day 89. For the same molecule, the survivor count (T/C endpoint: median survival time, dose: 30.0 mg/kg/injection, schedule: Q01DX005 (iv), vehicle: other, higher T/C = longer survival) was 0 of 14 on day 89; the survivor count (T/C endpoint: median survival time, dose: 30.0 mg/kg/injection, schedule: Q01DX009 (ip), vehicle: other, higher T/C = longer survival) was 0 of 10 on day 89; the survivor count (T/C endpoint: median survival time, dose: 40.0 mg/kg/injection, schedule: Q01DX009 (ip), vehicle: other, higher T/C = longer survival) is 1 of 10 on day 89; the survivor count (T/C endpoint: median survival time, dose: 50.0 mg/kg/injection, schedule: Q01DX009 (ip), vehicle: other, higher T/C = longer survival) is 0 of 10 on day 89; the survivor count (T/C endpoint: median survival time, dose: 60.0 mg/kg/injection, schedule: Q01DX001 (iv), vehicle: other, higher T/C = longer survival) is listed as 0 of 10 on day 89; the survivor count (T/C endpoint: median survival time, dose: 60.0 mg/kg/injection, schedule: Q01DX005 (ip), vehicle: other, higher T/C = longer survival) is given as 0 of 10 on day 89. The survivor count is listed as 0 of 10 on day 89 (T/C endpoint: median survival time, dose: 60.0 mg/kg/injection, schedule: Q01DX009 (ip), vehicle: other, higher T/C = longer survival); 0 of 9 (T/C endpoint: median survival time, dose: 100.0 mg/kg/injection, schedule: Q01DX009 (ip), vehicle: saline with Tween-80, higher T/C = longer survival); 3 of 10 on day 89 (T/C endpoint: median survival time, dose: 120.0 mg/kg/injection, schedule: Q01DX005 (ip), vehicle: other, higher T/C = longer survival); 4 of 10 on day 109 (T/C endpoint: median survival time, dose: 133.0 mg/kg/injection, schedule: Q01DX009 (ip), vehicle: saline with Tween-80, higher T/C = longer survival).
Turning to `Cc1ncc([N+](=O)[O-])n1CCO`, the T/C reads like this: under setting [1], 109 % of control [8 of 9 alive]; (T/C endpoint: median survival time, dose: 1000.0 mg/kg/injection, schedule: Q01DX001 (ip), vehicle: saline, evaluated on day 17, higher T/C = longer survival) 108 % of control; under setting [2], 102 % of control [7 of 8 alive on day 43]; under setting [3], 109 % of control [9 of 10 alive on day 50]; (T/C endpoint: median survival time, dose: 1000.0 mg/kg/injection, schedule: Q01DX001 (ip), vehicle: saline, evaluated on day 75, higher T/C = longer survival) 108 % of control.
Turning to `COC(=O)C(Cc1ccccc1)NS(=O)(=O)c1ccc(C)cc1` (stereo not drawn), the T/C is 138 % of control (T/C endpoint: median tumor weight (est.), dose: 50.0 mg/kg/injection, schedule: Q01DX009 (ip), vehicle: saline with Tween-80, evaluated on day 20, higher T/C = larger tumour) and 130 % of control (T/C endpoint: median tumor weight (est.), dose: 200.0 mg/kg/injection, schedule: Q01DX009 (ip), vehicle: saline with Tween-80, evaluated on day 20, higher T/C = larger tumour).
As for `O=C1N=C(Oc2ccccc2)SC1=O`, the survivor count is recorded as 5 of 10 on day 57 (T/C endpoint: median survival time, dose: 100.0 mg/kg/injection, schedule: Q04DX003 (ip), vehicle: saline with Tween-80, higher T/C = longer survival); 2 of 10 on day 57 (T/C endpoint: median survival time, dose: 200.0 mg/kg/injection, schedule: Q04DX003 (ip), vehicle: saline with Tween-80, higher T/C = longer survival); 0 of 10 on day 57 (T/C endpoint: median survival time, dose: 400.0 mg/kg/injection, schedule: Q04DX003 (ip), vehicle: saline with Tween-80, higher T/C = longer survival).
With `O=[N+]([O-])c1nccn1CC(O)CO` (stereo not drawn), the T/C under setting [1] is 96 and 109 % of control; the T/C under setting [2] was 96 % of control; the T/C (T/C endpoint: median survival time, dose: 1000.0 mg/kg/injection, schedule: Q01DX001 (ip), vehicle: saline, evaluated on day 49, higher T/C = longer survival) is 76 % of control; the T/C under setting [3] is 111 % of control.
In the case of `C1CCC2OCCOCCOCCOCCOC2C1` (stereo not drawn), the survivor count is, setting by setting: (T/C endpoint: median survival time, dose: 200.0 mg/kg/injection, schedule: Q01DX009 (ip), vehicle: saline, higher T/C = longer survival) 0 of 10; (T/C endpoint: median tumor weight (est.), dose: 200.0 mg/kg/injection, schedule: Q01DX009 (ip), vehicle: saline, higher T/C = larger tumour) 0 of 10 on day 20.
Regarding `CCC/C=C/C=C/C(=O)OC1/C(=C/C(=O)OC)CC2CC(C(C)O)OC(=O)CC(O)CC3CC(OC(C)=O)C(C)(C)C(O)(CC4C/C(=C/C(=O)OC)CC(/C=C/C(C)(C)C1(O)O2)O4)O3` (stereo not drawn), the T/C reads like this: (T/C endpoint: median survival time, dose: 40.0 micrograms/kg/injection, schedule: Q01DX009 (ip), vehicle: saline + Tween-80 + alcohol, higher T/C = longer survival) 130 % of control; (T/C endpoint: median survival time, dose: 40.0 micrograms/kg/injection, schedule: Q01DX009 (ip), vehicle: saline + alcohol, higher T/C = longer survival) 125 % of control. The survivor count reads like this: (T/C endpoint: median tumor weight (est.), dose: 80.0 micrograms/kg/injection, schedule: Q01DX009 (ip), vehicle: saline + Tween-80 + alcohol, higher T/C = larger tumour) 6 of 10 on day 20; (T/C endpoint: median tumor weight (est.), dose: 80.0 micrograms/kg/injection, schedule: Q01DX009 (ip), vehicle: saline + alcohol, higher T/C = larger tumour) 6 of 10 on day 20.

(Values after PubChem BioAssay AID288 (DTP/NCI, 2004).)
